The source of these data is PMC10933267.

Amino acid sequences for entries named in this document (tags omitted).
UniProt P32242: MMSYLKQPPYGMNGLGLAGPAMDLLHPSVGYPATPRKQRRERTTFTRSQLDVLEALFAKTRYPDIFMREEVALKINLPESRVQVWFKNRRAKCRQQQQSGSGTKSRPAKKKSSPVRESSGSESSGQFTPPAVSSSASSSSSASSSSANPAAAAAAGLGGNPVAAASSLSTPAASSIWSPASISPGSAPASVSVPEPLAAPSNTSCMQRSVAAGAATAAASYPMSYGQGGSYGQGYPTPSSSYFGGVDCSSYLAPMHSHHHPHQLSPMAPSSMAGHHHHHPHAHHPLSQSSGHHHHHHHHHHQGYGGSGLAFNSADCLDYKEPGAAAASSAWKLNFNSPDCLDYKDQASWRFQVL
UniProt O43186: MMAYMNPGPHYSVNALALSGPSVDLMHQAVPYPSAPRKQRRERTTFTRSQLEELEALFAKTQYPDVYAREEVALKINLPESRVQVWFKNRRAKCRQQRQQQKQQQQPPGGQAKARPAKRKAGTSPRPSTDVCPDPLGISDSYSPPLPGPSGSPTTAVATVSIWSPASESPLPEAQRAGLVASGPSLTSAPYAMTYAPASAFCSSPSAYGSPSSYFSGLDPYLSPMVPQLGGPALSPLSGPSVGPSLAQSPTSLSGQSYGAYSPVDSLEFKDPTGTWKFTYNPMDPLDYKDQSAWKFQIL
UniProt P32243: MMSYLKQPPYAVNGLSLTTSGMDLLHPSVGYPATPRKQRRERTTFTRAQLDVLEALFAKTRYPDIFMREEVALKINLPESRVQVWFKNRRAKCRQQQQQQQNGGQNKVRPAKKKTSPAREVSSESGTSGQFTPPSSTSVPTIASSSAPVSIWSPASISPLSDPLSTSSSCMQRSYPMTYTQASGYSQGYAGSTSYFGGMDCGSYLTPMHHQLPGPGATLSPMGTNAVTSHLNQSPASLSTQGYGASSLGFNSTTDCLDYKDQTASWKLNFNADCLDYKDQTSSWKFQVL
UniProt Q09472: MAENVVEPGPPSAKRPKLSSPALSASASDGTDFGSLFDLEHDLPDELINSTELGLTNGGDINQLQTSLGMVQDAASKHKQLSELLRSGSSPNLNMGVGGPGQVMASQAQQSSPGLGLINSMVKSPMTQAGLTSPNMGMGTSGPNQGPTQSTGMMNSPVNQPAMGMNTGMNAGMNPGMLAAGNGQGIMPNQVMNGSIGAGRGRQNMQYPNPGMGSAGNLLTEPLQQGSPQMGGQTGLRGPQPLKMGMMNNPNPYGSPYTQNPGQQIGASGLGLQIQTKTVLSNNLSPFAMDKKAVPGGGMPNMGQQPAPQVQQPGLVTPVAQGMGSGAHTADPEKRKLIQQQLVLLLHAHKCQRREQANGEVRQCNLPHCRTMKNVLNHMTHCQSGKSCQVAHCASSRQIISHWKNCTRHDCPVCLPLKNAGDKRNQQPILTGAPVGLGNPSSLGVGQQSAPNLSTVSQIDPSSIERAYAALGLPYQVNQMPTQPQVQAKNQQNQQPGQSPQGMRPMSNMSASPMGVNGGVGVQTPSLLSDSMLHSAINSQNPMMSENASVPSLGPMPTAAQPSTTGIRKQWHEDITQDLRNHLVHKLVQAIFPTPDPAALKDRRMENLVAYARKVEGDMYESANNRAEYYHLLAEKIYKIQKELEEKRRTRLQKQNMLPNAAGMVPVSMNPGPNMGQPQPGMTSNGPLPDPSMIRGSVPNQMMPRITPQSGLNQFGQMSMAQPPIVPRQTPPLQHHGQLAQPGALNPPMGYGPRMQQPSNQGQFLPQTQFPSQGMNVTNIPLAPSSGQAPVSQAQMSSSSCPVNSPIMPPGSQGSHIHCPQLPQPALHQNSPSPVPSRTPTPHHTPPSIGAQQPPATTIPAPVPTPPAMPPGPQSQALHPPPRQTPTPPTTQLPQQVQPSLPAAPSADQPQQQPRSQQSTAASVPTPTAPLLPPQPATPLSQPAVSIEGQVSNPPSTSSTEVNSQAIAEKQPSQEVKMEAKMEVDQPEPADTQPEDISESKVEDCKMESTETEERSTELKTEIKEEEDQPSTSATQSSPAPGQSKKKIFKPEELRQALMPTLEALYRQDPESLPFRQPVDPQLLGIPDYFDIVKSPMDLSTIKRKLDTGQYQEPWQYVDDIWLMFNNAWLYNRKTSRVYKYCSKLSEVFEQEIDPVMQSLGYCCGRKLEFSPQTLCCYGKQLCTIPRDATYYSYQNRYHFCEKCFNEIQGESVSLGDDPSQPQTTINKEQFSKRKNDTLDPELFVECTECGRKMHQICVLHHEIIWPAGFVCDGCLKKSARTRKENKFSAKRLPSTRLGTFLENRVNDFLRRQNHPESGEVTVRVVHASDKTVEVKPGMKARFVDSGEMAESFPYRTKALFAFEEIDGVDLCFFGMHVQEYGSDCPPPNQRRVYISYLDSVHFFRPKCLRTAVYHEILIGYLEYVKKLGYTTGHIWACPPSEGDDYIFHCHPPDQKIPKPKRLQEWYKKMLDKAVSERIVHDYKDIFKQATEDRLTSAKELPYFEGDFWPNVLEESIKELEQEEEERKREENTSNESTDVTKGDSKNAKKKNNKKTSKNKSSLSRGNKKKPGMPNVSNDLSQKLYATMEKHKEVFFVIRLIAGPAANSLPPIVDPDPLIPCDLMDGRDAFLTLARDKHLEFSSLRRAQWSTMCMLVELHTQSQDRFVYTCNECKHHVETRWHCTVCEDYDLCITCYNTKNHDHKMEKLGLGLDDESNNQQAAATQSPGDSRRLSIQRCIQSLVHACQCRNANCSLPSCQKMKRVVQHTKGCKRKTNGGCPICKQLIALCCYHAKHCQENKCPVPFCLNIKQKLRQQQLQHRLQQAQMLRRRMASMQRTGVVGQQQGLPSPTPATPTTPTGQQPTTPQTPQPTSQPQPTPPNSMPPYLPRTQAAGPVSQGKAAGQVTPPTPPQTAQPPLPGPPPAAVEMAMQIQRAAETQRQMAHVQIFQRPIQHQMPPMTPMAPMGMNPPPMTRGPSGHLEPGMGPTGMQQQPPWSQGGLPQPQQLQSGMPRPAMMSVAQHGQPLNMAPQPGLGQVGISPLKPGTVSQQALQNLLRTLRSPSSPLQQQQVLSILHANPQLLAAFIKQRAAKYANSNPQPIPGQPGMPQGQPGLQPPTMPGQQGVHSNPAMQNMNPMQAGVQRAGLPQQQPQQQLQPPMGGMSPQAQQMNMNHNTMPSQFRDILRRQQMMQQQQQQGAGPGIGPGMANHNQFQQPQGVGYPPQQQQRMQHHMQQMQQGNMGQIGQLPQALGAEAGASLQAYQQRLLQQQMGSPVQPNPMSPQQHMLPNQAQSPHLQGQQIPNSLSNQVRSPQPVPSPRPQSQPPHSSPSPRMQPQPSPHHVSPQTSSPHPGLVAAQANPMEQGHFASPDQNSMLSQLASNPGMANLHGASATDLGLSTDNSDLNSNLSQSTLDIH
UniProt O75362: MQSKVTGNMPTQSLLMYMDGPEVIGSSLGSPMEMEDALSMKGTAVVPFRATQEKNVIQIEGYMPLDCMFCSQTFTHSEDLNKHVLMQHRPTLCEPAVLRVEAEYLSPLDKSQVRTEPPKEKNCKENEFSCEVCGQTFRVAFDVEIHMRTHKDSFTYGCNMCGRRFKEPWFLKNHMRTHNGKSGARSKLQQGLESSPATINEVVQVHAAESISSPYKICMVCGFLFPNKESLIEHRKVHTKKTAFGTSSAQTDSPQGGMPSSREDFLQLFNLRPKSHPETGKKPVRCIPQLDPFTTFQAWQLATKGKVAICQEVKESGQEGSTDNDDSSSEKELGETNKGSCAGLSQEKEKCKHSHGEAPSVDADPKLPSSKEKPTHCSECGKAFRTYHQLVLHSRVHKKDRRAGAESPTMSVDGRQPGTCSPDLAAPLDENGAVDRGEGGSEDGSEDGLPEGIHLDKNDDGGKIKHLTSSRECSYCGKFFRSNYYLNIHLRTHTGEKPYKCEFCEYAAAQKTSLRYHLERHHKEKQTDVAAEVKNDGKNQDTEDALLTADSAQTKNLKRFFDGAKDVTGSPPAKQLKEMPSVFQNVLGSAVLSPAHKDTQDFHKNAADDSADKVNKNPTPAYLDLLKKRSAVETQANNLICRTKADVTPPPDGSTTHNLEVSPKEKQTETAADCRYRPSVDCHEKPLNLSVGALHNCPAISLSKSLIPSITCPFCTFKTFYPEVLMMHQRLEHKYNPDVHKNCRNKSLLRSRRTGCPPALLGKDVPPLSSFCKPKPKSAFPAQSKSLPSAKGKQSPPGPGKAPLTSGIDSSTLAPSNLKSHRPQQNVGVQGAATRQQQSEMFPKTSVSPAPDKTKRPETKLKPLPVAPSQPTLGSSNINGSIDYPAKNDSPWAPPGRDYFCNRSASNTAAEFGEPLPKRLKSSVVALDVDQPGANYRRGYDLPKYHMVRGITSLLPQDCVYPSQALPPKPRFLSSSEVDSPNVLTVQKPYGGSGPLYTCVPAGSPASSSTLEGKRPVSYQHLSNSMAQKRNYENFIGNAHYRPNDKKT

Where two headings read alike, the source gives them in different places. These are yes or no findings as the source states them, for the method shown. In cells and extracts the contact can be indirect. These calls come from enrichment with a bait or labelling near it, and not all partners need be listed. For part of these data: A no says only that the protein was not detected with the bait.

One experiment has as its target T1, DPRX (human) (UniProt A6NFQ7).
T1 sequence: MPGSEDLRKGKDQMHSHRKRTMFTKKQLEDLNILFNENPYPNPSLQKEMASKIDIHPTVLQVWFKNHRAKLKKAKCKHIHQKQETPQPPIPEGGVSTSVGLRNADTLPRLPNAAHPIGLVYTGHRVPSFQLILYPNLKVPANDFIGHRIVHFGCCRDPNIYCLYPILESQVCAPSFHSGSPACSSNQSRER
Nature of the experiment: proximity labelling; BioID-MS: MAC-tagged bait (BirA) in stable Flp-In T-REx 293 cells, tetracycline and 50 µM biotin for 24 h; lysate with Benzonase, sonicated; Strep-Tactin beads; LC-MS; high-confidence interactions by SAINTexpress BFDR < 0.01 and a GFP BioID contaminant database.

The target of the next experiment is OTX1 (human) (UniProt P32242). Described as above.
In another experiment the target is T2, TPRX1 (human) (UniProt Q8N7U7).
T2 sequence: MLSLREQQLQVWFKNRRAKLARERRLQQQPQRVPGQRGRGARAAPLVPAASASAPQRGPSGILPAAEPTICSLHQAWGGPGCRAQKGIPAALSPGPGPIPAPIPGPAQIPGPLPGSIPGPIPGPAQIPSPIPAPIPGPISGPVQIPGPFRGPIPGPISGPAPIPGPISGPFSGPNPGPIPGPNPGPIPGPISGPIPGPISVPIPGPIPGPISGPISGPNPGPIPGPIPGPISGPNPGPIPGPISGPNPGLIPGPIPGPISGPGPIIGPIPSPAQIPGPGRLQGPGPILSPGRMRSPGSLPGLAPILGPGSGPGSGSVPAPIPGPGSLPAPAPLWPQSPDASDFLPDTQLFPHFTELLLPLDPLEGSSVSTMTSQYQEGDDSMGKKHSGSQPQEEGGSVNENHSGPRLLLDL
Described as above.

For experiment [1], the target named is CRX (human) (UniProt O43186). The description is as above.
A further experiment deals with T3, ARGFX (human) (UniProt A6NJG6).
T3 sequence: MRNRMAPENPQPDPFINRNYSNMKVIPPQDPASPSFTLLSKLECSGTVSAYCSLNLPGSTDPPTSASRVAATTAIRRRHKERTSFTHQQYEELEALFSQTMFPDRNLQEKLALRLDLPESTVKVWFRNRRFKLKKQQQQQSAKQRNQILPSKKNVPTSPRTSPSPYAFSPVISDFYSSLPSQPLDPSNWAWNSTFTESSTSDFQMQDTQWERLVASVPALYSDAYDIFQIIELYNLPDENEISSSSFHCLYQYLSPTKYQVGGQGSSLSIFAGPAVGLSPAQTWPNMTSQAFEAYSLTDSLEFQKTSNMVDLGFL
The experiment is described as above.

Another experiment concerns the target OTX2 (human) (UniProt P32243). Described as above.
The target of experiment [2] is T4, TPRX2 (human) (UniProt P0DV77).
T4 sequence: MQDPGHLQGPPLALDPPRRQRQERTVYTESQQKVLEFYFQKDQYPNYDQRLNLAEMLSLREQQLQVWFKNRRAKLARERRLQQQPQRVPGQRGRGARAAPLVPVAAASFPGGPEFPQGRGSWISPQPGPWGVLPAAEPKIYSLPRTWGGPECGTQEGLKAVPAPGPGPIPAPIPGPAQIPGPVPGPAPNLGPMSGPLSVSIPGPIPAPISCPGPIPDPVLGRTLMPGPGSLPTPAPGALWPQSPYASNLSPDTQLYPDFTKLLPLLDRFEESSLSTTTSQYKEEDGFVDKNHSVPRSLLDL
The description is as above.

A further experiment deals with T5, ZSCAN4 (human) (UniProt Q8NAM6).
T5 sequence: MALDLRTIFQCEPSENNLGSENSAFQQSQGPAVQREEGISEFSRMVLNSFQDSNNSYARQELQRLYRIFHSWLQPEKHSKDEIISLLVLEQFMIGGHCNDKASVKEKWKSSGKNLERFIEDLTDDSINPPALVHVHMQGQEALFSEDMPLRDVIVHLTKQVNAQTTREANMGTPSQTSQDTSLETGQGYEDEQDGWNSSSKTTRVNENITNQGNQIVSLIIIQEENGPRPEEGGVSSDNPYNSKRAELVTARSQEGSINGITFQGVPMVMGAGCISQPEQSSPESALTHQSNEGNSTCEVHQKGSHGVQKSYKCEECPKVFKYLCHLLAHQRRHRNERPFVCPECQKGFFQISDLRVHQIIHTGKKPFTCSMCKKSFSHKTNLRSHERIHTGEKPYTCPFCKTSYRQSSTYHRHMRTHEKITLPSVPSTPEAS
Put plainly: affinity purification with mass spectrometry; AP-MS: MAC-tagged bait in stable Flp-In T-REx 293 cells, 2 µg/ml tetracycline for 24 h; lysate (1% n-dodecyl beta-D-maltoside, 150 mM NaCl, pH 8.0) on Strep-Tactin beads, eluted with biotin; LC-MS; SAINTexpress BFDR < 0.01 and CRAPome filter.

For the next experiment, the target named is T6, DPPA3 (human) (UniProt Q6W0C5).
T6 sequence: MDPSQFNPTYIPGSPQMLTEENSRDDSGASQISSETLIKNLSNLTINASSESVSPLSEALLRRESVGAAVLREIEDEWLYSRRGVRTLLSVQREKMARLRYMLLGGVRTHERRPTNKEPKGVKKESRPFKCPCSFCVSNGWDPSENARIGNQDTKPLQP
The description is as above.

Experiment [3] concerns the target CRX (human) (UniProt O43186). Nature of the experiment: proximity labelling; BioID-MS: MAC-tagged bait (BirA) in stable Flp-In T-REx 293 cells, tetracycline and 50 µM biotin for 24 h; lysate with Benzonase, sonicated; Strep-Tactin beads; LC-MS; high-confidence interactions by SAINTexpress BFDR < 0.01 and a GFP BioID contaminant database. This is another data set of the same source.

The target of another experiment is EGR2 (human) (UniProt P11161). Described as above.
In experiment [4] the target is T4, TPRX2 (human). The experiment is described as above. The source holds these as a separate data set.

Take EP300 (from UniProt Q09472 1-2414): the binding entry is “no binding” with DPRX (human); “binds” in the experiment with OTX1 (human); “binds” with TPRX1 (human); “binds” with CRX (human) [1]; “binds” in the experiment with ARGFX (human); “binds” with OTX2 (human). In the experiment with TPRX2 (human) [2], the binding result is recorded as “binds”.

Turning to ZNF217 (from UniProt O75362 1-1048), in the experiment with ZSCAN4 (human), the binding result is listed as “binds”.

B1: UHRF2 (protein, UniProt Q96PU4 1-802)
chain: MWIQVRTIDGSKTCTIEDVSRKATIEELRERVWALFDVRPECQRLFYRGKQLENGYTLFDYDVGLNDIIQLLVRPDPDHLPGTSTQIEAKPCSNSPPKVKKAPRVGPSNQPSTSARARLIDPGFGIYKVNELVDARDVGLGAWFEAHIHSVTRASDGQSRGKTPLKNGSSCKRTNGNIKHKSKENTNKLDSVPSTSNSDCVAADEDVIYHIQYDEYPESGTLEMNVKDLRPRARTILKWNELNVGDVVMVNYNVESPGQRGFWFDAEITTLKTISRTKKELRVKIFLGGSEGTLNDCKIISVDEIFKIERPGAHPLSFADGKFLRRNDPECDLCGGDPEKKCHSCSCRVCGGKHEPNMQLLCDECNVAYHIYCLNPPLDKVPEEEYWYCPSCKTDSSEVVKAGERLKMSKKKAKMPSASTESRRDWGRGMACVGRTRECTIVPSNHYGPIPGIPVGSTWRFRVQVSEAGVHRPHVGGIHGRSNDGAYSLVLAGGFADEVDRGDEFTYTGSGGKNLAGNKRIGAPSADQTLTNMNRALALNCDAPLDDKIGAESRNWRAGKPVRVIRSFKGRKISKYAPEEGNRYDGIYKVVKYWPEISSSHGFLVWRYLLRRDDVEPAPWTSEGIERSRRLCLRLQYPAGYPSDKEGKKPKGQSKKQPSGTTKRPISDDDCPSASKVYKASDSAEAIEAFQLTPQQQHLIREDCQNQKLWDEVLSHLVEGPNFLKKLEQSFMCVCCQELVYQPVTTECFHNVCKDCLQRSFKAQVFSCPACRHDLGQNYIMIPNEILQTLLDLFFPGYSKGR
In the case of B1, the binding result in the experiment with DPPA3 (human) is “binds”.

B2: TRERF1 (protein, UniProt Q96PN7 1-1200)
chain: MGDQQLYKTNHVAHGSENLFYQQPPLGVHSGLNHNYGNAVTGGGMDAPQASPISPHFPQDTRDGLGLPVGSKNLGQMDTSRQGGWGSHAGPGNHVQLRGNLANSNMMWGAPAQAEPTDGYQYTYSQASEIRTQKLTSGVLHKLDSFTQVFANQNLRIQVNNMAQVLHTQSAVMDGAPDSALRQLLSQKPMEPPAPAIPSRYQQVPQQPHPGFTGGLSKPALQVGQHPTQGHLYYDYQQPLAQVPVQGGQPLQAPQMLSQHMQQMQQHQYYPPQQQQQAGQQRISMQEIQTQPQQIRPSQPQPPPQQQQPQQLQLQQRQGSMQIPQYYQPQPMMQHLQEQQQQQMHLQPPSYHRDPHQYTPEQAHTVQLIPLGSMSQYYYQEPQQPYSHPLYQQSHLSQHQQREDSQLKTYSSDRQAQAMLSSHGDLGPPDTGMGDPASSDLTRVSSTLPHRPLLSPSGIHLNNMGPQHQQLSPSAMWPQMHLPDGRAQPGSPESSGQPKGAFGEQFDAKNKLTCSICLKEFKNLPALNGHMRSHGGMRASPNLKQEEGEKVLPPQPQPPLPPPPPPPPPPQLPPEAESLTPMVMPVSVPVKLLPPKPSSQGFTNSTVAAPSARDKPASSMSDDEMPVLEIPRKHQPSVPKAEEPLKTVQEKKKFRHRPEPLFIPPPPSYNPNPAASYSGATLYQSQLRSPRVLGDHLLLDPTHELPPYTPPPMLSPVRQGSGLFSNVLISGHGPGAHPQLPLTPLTPTPRVLLCRSNSIDGSNVTVTPGPGEQTVDVEPRINIGLRFQAEIPELQDISALAQDTHKATLVWKPWPELENHDLQQRVENLLNLCCSSALPGGGTNSEFALHSLFEAKGDVMVALEMLLLRKPVRLKCHPLANYHYAGSDKWTSLERKLFNKALATYSKDFIFVQKMVKSKTVAQCVEYYYTWKKIMRLGRKHRTRLAEIIDDCVTSEEEEELEEEEEEDPEEDRKSTKEEESEVPKSPEPPPVPVLAPTEGPPLQALGQPSGSFICEMPNCGAVFSSRQALNGHARIHGGTNQVTKARGAIPSGKQKPGGTQSGYCSVKSSPSHSTTSGETDPTTIFPCKECGKVFFKIKSRNAHMKTHRQQEEQQRQKAQKAAFAAEMAATIERTTGPVGAPGLLPLDQLSLIKPIKDVDILDDDVVQQLGGVMEEAEVVDTDLLLDDQDSVLLQGDAEL
B2: the binding entry with CRX (human) [3], in the experiment with EGR2 (human) and with TPRX2 (human) [4] was “binds” in each case.
